According to PMC4230729:
These are yes or no findings as the source states them, for the method shown. In cells and extracts the contact can be indirect. Some entries that bind do so weakly or less than the wild type.

The chains behind the UniProt entries cited, without tags or fusion partners. Where a name states a change or a piece, a line headed by the entry shows the natural chain unless it says otherwise.
UniProt P91910: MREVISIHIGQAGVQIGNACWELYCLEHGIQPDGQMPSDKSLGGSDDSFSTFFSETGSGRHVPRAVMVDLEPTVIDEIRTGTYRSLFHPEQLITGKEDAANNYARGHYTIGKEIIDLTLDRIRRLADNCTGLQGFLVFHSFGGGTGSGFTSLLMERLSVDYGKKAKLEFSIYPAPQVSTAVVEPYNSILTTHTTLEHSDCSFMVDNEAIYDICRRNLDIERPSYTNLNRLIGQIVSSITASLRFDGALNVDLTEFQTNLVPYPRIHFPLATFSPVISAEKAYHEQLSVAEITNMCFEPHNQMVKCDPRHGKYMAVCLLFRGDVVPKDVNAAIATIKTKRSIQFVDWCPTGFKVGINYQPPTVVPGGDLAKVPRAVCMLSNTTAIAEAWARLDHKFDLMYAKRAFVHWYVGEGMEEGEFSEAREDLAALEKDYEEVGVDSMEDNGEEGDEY
UniProt P12456: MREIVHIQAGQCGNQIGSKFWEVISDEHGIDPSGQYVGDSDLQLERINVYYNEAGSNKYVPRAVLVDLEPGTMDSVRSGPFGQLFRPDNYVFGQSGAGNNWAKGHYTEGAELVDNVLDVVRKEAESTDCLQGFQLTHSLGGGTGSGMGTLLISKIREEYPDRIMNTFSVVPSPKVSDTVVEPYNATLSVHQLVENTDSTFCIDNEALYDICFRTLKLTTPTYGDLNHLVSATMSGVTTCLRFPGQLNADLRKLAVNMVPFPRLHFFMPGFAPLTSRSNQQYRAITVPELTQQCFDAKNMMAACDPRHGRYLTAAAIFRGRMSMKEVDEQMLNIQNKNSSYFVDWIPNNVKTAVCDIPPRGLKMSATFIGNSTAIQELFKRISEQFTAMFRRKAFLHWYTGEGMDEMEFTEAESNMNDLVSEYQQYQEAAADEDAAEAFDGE
UniProt P23678: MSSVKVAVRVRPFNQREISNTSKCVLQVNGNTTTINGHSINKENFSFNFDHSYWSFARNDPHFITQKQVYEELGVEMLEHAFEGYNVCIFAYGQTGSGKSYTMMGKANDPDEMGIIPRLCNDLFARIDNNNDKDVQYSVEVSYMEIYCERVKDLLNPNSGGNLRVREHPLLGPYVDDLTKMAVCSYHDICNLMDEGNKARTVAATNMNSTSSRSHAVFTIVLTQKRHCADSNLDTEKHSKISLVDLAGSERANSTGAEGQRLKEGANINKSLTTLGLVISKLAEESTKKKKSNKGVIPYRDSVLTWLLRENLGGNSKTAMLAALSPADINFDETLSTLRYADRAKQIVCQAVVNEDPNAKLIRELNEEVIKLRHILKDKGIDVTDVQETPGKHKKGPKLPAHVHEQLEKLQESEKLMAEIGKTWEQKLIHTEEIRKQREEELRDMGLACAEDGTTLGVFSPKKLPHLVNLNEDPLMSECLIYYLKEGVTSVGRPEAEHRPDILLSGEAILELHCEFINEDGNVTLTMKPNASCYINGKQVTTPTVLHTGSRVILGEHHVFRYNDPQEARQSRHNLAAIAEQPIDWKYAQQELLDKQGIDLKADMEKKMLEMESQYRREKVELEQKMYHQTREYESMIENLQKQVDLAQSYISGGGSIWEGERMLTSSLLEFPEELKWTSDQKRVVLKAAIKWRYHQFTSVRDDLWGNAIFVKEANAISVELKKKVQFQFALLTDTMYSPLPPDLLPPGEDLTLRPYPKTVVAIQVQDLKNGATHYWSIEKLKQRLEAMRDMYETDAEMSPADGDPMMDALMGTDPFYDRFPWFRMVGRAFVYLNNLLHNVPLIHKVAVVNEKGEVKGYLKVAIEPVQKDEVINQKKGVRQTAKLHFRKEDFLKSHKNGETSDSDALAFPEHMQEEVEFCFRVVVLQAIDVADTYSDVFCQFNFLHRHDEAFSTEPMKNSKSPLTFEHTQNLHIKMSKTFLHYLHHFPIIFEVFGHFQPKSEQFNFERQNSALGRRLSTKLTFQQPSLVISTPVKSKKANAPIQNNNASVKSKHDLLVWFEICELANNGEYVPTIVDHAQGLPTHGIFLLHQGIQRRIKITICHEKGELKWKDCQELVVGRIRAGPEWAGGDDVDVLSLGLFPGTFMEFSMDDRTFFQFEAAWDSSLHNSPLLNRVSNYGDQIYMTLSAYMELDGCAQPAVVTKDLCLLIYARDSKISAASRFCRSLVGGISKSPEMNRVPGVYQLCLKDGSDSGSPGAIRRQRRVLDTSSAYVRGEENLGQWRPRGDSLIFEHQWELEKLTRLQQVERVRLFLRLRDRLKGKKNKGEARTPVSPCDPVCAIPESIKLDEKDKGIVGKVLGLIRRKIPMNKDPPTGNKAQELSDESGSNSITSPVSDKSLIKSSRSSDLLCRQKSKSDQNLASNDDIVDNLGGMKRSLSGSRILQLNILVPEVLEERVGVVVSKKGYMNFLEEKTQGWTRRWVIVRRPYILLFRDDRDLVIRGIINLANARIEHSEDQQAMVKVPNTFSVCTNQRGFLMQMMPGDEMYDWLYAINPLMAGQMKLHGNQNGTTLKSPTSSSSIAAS

How the values were obtained:
[1] = target: MEC-12(G416E)-containing microtubules (C. elegans) (UniProt P91910+P12456); test: co-sedimentation; microtubules polymerised in the high-speed supernatant of worm extract (PMEG buffer, 2 mM GTP, taxol, hexokinase, glucose, AMP-PNP, on ice 90 min), sedimented through a 20% sucrose cushion, washed with 50 mM NaCl, pelleted; pellet blotted with anti-DHC-1, anti-UNC-104 and 6-11B-1; band intensity normalised to tubulin
[2] = target: wild-type microtubules sedimented from animals overexpressing wild-type MEC-12 (with MEC-7) (C. elegans) (UniProt P91910+P12456); test: as above

Substance	binding [1]	binding [2]
DHC-1, heavy chain of cytoplasmic dynein (from UniProt Q19020 1-4568)	binds	binds
UNC-104/KIF1A (from UniProt P23678 1-1584)	binds	binds
